{"source": "patent US20020136691A1", "about": "“Pharmacological evaluation test (PET) in animals for continuous assessment of physiological functions” (priority 2000, published 2002)", "system": "Sprague Dawley rats", "experiment": "Renal function monitoring (urine collection in metabolism cages)", "assay_type": "in vivo", "details": "10 and 30 mg/kg p.o.; 0-8 hour urine collection period"}
{"smiles": "NS(=O)(=O)c1cc(C(=O)O)c(NCc2ccco2)cc1Cl", "note": "[furosemide]", "values": [{"measurement": "Na^+ excretion (natriuresis)", "result": "dose dependent increase"}]}
